Source: publication PMC11234063, “Eugenol and lidocaine inhibit voltage-gated Na^+ channels from dorsal root ganglion neurons with different mechanisms” (Frontiers in Pharmacology, 2024)
“And” between values parts separate entries of the source, which are not always exact repeats. Identical values can stand only once.

Tested on: DRG neurons
Assay: Membrane resistance, hyperpolarizing pulse to −130 mV
Format: cell-based, rat
Details: EUG 3 mM

Compound: C=CCc1ccc(O)c(OC)c1 [EUG, 4-allyl-2-methoxyphenol]
- Membrane resistance of individual cells after exposure: 148.9 MΩ and 137.89 MΩ and 372.68 MΩ and 102.77 MΩ and 96.73 MΩ and 335.87 MΩ and 478.4 MΩ and 443.12 MΩ and 619.22 MΩ and 153.08 MΩ and 87.91 MΩ and 171.41 MΩ and 172.79 MΩ and 163.83 MΩ and 828.28 MΩ and 690.18 MΩ and 188.31 MΩ and 188.3 MΩ and 155.05 MΩ
